Measured values as given in PubChem BioAssay AID493014 (National Center for Advancing Translational Sciences (NCATS), 2011).
Some of the results follow. The main result of the screen is listed elsewhere. These columns were measured beside it and carry no call. Most of these compounds were active or inconclusive in the main read-out, so they are no random draw. Words in brackets tell the shape of the fitted curve; partial curves, single points and poor fits give uncertain potencies.

Assay: qHTS Assay to Find Inhibitors of Chronic Active B-Cell Receptor Signaling
Settings: ABC-DLBCL IkBa-CBG/CBR reporter, luminescence ratio (green luciferase fused to IkBa over red control in TMD8 lymphoma cells), 4 h
In short: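 Cell line TMD8 (human ABC DLBCL), stably expressing tet-inducible CBG68-IkBa fusion and CBR; IMDM/0.5% FBS; cpd up to 46 uM; dox induction, 4 h, 37C/5% CO2; dual luminescence; green/red ratio; MG132 control.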

[1] = measured here: CBR red luminescence, cell number
[2] = measured here: IkBa-CBG green luminescence

Structure (SMILES)	AC50 [1]	AC50 [2]
CC[C@@]1(O)C(=O)OCc2c1cc1n(c2=O)Cc2cc3ccccc3nc2-1	1.41 µM [falling, full curve]	–
Cc1ccc(C(=O)C2CN3CCC2CC3)cc1 (centres undefined)	18.4 µM [rising, single point]	–
CCN(CC)Cc1c[nH]c2ccccc12	7.08 µM [falling, full curve, poor fit]	–
CNC(=O)Oc1cccc(-c2cn3cc(Cl)ccc3n2)c1	18.4 µM [falling, single point]	–
Nc1c(C(=O)NCC2CCCO2)c2nc3ccccc3nc2n1Cc1ccco1 (centres undefined)	0.501 µM [falling, full curve, poor fit]	0.141 µM [rising, full curve, poor fit]
CCOc1ccc(C(C)=O)cc1Cn1c(=O)oc2ccccc21	10 µM [falling, partial curve]	–
CC(=O)Cc1c[nH]c2ccccc12	35.5 µM [rising, single point]	20 µM [falling, partial curve, poor fit]
CCN1CCN(c2cc(N3CCCC3)c(F)cc2[N+](=O)[O-])CC1	18.4 µM [falling, single point]	–
Nc1ccc2nc(-c3ccccc3)[nH]c2c1	3.16 µM [falling, full curve, poor fit]	–
Cc1cc(C)c2c(N)c(C(=O)N/N=C/c3ccccc3)sc2n1	1.12 µM [rising, full curve]	–
CN1CCN(c2ccc(/C=C3\C(=O)NC(=S)N(c4cccc(Br)c4)C3=O)o2)CC1	6.51 µM [rising, partial curve]	–
O=C(N/N=C/c1c(O)n(Cc2ccc(F)cc2)c(=O)[nH]c1=O)c1ccccc1O	7.31 µM [falling, partial curve]	–
C=CCn1c(O)c(/C=C2\C=Nc3ccccc32)c(=O)[nH]c1=O	2.24 µM [falling, partial curve, poor fit]	–
O=c1c2ccccc2ncn1-c1ccc([N+](=O)[O-])c(C(F)(F)F)c1	9.2 µM [rising, partial curve]	–
CC/C(CC(c1ccccc1)c1c(O)c2ccccc2oc1=O)=N\NC(N)=S (centres undefined)	7.31 µM [falling, partial curve, poor fit]	–
O=C(NCc1ccccc1)c1cccn(Cc2ccccc2)c1=O	1.26 µM [rising, full curve, poor fit]	–
O=P1(O)C=C(c2ccccc2)NC(c2ccccc2)=C1	0.184 µM [rising, full curve, poor fit]	–
Cc1cccc(Cn2cc(C=O)c3ccccc32)c1	5.62 µM [rising, single point]	–
CCOc1ccc(CN2CCCC(C(=O)c3ccccc3OC)C2)cc1 (centres undefined)	25.1 µM [falling, single point]	–
COC(=O)C1=C(c2ccc(-c3ccccc3)c(F)c2)C[C@@H]2CC[C@H]1N2C(=O)NCCc1ccccc1	2.59 µM [falling, full curve]	–
COc1ccc(-n2c(O)c(/C=C3\C=Nc4ccc(Br)cc43)c(=O)[nH]c2=O)cc1	35.5 µM [rising, single point]	–

Structure (SMILES)	AC50 [1]	AC50 [2]
O=c1[nH]c(=O)n(-c2cccc3ccccc23)c(O)c1/C=N/N1CCCCCC1	8.91 µM [falling, partial curve, poor fit]	–
O=c1[nH]c(O)c(C=Nc2ccccc2Oc2ccccc2)c(=O)[nH]1	0.1 µM [rising, full curve, poor fit]	–
COc1ccc(N2CCN(C(=O)CSc3nnc(-c4cc5ccccc5cc4O)n3C)CC2)cc1	25.1 µM [falling, partial curve, poor fit]	–
C[N+](C)(C)CCCCCCCCCC[N+](C)(C)C	8.91 µM [rising, partial curve, poor fit]	–
O=C(NCc1ccccc1)C1CCN(c2nc(-c3ccccc3)nc3c2CCC3)CC1	10 µM [falling, partial curve, poor fit]	–
Cc1cccc(Cn2cc(/C=C/[N+](=O)[O-])c3ccccc32)c1	35.5 µM [rising, single point]	–
CCOC(=O)c1c(NC(=O)CCl)sc(CN(C)C)c1-c1ccccc1	35.5 µM [falling, single point]	–
CN(C)C(=O)Oc1ccc2c(c1)O/C(=C\c1ccc(Cl)cc1)C2=O	20 µM [rising, single point]	–
C[C@H](O)[C@H]1CC[C@H]2[C@@H]3CCC4=CC(=O)CC[C@]4(C)[C@H]3CC[C@]12C	–	20.6 µM [falling, single point]
COC(=O)C1=C(c2c(C)noc2C)C[C@@H]2CC[C@H]1N2C(=O)N1CCCC1	3.66 µM [rising, single point]	–
CCCCc1cc(O)c(CCCC)c(O)c1	17.8 µM [falling, single point]	–
O=C(c1cccs1)C1CN2CCC1CC2 (centres undefined)	32.6 µM [rising, single point]	–
CCC1Cc2c(nc(N)c3c(N)nc(N4CCCCC4)c(C#N)c23)O1 (centres undefined)	12.6 µM [falling, partial curve, poor fit]	–
CCCOP(=O)(OCCC)c1nc(-c2ccccc2)oc1NCc1ccccc1	25.9 µM [falling, single point]	–
Nc1ccc2cc(Br)ccc2c1	2.82 µM [rising, full curve]	–
NP(=O)(OCCCc1ccccc1)Oc1ccccc1 (centres undefined)	0.316 µM [rising, full curve, poor fit]	–
CCCC/C(C)=C/[C@@H](NP(=O)(c1ccccc1)c1ccccc1)c1ccccc1	18.4 µM [falling, single point]	25.9 µM [rising, single point]
Cn1c(O)c(Cc2ccc(OCc3ccccc3)cc2)c(=O)n(C)c1=O	6.31 µM [rising, partial curve]	–
COc1ccc(C(C)(C)C)cc1NC(=O)CCCn1c(=O)oc2ccccc21	6.51 µM [rising, single point]	–
Nc1c(C(=O)NCCN2CCOCC2)c2nc3ccccc3nc2n1Cc1ccco1	12.6 µM [falling, single point]	–

3 entries picked at random from the list so far:
Structure (SMILES)	AC50 [1]	AC50 [2]
O=c1[nH]c(=O)n(-c2cccc3ccccc23)c(O)c1/C=N/N1CCCCCC1	8.91 µM [falling, partial curve, poor fit]	–
COC(=O)C1=C(c2c(C)noc2C)C[C@@H]2CC[C@H]1N2C(=O)N1CCCC1	3.66 µM [rising, single point]	–
Nc1ccc2cc(Br)ccc2c1	2.82 µM [rising, full curve]	–
